Source: US20130115212A1
Results are given in words; binding and its absence hold for the method and conditions named. Some binding calls cover weakened binding; strength is not graded here.

Chains of the proteins cited; added tags and fusions are not shown. Lines headed by an entry give the natural chain unless they say otherwise; changes in a name come on top.
UniProt Q92673: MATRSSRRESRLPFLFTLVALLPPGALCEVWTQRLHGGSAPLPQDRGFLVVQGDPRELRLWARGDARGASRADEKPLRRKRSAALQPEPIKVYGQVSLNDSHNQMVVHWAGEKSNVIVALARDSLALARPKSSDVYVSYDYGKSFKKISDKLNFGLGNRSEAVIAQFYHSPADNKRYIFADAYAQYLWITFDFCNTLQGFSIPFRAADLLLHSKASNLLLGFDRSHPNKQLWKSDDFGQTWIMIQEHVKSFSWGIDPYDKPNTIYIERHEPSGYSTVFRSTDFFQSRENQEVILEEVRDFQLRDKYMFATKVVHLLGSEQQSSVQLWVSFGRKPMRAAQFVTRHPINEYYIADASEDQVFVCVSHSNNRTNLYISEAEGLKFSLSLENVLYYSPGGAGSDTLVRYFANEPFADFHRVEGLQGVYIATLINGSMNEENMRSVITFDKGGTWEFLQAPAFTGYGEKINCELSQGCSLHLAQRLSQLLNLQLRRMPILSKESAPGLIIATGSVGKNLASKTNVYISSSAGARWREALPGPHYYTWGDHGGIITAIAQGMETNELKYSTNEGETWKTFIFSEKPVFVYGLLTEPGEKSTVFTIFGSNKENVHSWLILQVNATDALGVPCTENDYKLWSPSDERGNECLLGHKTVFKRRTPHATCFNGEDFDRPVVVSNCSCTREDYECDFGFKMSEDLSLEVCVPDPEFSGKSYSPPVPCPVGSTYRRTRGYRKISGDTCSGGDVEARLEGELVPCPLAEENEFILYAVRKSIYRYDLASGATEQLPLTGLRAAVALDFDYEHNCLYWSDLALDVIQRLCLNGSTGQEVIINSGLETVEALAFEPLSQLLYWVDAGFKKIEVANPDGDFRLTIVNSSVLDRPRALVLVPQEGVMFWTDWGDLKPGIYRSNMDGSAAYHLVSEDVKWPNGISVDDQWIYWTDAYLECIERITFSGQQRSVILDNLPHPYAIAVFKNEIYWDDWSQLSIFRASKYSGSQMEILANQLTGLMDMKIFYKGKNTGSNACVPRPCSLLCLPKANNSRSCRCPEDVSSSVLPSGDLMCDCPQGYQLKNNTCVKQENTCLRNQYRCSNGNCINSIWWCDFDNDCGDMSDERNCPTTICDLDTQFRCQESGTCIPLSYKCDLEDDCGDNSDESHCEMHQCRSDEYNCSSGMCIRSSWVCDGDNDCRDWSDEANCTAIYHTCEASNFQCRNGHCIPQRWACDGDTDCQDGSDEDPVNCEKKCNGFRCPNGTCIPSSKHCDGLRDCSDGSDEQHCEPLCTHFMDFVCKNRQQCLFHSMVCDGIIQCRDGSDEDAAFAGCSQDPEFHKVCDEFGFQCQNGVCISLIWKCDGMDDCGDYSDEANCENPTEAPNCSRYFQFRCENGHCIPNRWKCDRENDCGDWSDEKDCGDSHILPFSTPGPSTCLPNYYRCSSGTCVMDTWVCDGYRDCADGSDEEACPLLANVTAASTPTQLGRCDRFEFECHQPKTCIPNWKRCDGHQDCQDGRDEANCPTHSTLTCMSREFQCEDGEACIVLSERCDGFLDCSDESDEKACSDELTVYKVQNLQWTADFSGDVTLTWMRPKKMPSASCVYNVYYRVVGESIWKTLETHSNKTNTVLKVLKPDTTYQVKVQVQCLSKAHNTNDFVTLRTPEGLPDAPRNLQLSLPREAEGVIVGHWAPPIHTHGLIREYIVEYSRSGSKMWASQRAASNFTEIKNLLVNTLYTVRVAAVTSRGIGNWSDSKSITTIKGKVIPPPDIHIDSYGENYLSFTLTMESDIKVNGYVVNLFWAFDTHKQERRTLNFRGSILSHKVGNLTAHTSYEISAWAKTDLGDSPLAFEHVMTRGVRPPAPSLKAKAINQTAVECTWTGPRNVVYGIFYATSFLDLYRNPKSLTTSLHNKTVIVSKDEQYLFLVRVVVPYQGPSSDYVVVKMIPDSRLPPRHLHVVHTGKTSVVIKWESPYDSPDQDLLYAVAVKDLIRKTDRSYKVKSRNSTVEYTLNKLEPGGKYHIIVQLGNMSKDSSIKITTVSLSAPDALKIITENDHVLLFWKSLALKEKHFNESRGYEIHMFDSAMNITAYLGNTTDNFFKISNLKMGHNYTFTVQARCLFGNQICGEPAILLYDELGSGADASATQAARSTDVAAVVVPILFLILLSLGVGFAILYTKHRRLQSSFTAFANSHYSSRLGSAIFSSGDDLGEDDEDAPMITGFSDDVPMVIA

B1: GFRα4 expressed on cells (HEK293 cells with SorLA) (receptor)
chain: VGGNRCVDAAEACTADARCQRLRSEYVAQCLGRAAQGGCPRARCRRALRRFFARGPPALTHALLFCPCAGPACAERRRQTFVPSCAFSGPGPAPPSCLEPLNFCERSRVCRCARAAAGPWRGWGRGLSPAHRPPAAQASPPGLSGLVHPSAQRPRRLPAGPGRPLPARLRGPRGVPAGTAVTPNYVDNVSARVAPWCDCGASGNRREDCEAFRGLFTRNRCLDGAIQAFASGWPPVLLDQLNPQGDPEHSLLQVSSTG
B2: GFRα4 extracellular domain (receptor)
chain: VGGNRCVDAAEACTADARCQRLRSEYVAQCLGRAAQGGCPRARCRRALRRFFARGPPALTHALLFCPCAGPACAERRRQTFVPSCAFSGPGPAPPSCLEPLNFCERSRVCRCARAAAGPWRGWGRGLSPAHRPPAAQASPPGLSGLVHPSAQRPRRLPAGPGRPLPARLRGPRGVPAGTAVTPNYVDNVSARVAPWCDCGASGNRREDCEAFRGLFTRNRCLDGAIQAFASGWPPVLLDQLNPQGDPEHSLLQVSSTG

Tests used:
[1] = target: SorLA expressed on cells (stably transfected HEK293 cells; SY5Y neuroblastoma cells, endogenous or overexpressed) (Homo sapiens) (UniProt Q92673); assay: DSP crosslinking, immunoprecipitation with anti-GFRα4 and Western blot, HEK293 cells
[2] = target: SorLA extracellular domain (immobilized on the Biacore chip) (Homo sapiens) (UniProt Q92673); assay: SPR, chip coated with SorLA

Binder	binding [1]	binding [2]
B1	binds	–
B2	–	binds
